The supplement of paper PMC7661543
Differences between knockout arms are mostly noise.

Tested on: HCC-38
Assay: relative cell number vs DMSO control (72 h) (% of DMSO); higher = less growth inhibition (more cells)
Experimental: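 QMAP-Seq: a pool of 5 breast cancer cell lines (ZR-75-1, SKBR3, HCC-38, MDA-MB-231, BT-20), each carrying 12 doxycycline-inducible Cas9 sgRNA perturbations (11 knockouts plus non-targeting sgNT), was treated with compounds for 72 h at four 10-fold doses (10 nM-10 uM or 1 nM-1 uM range). Barcodes were amplified and sequenced, and cell number was interpolated from 293T spike-in standard curves. The result is expressed as % of the median of DMSO wells. Two biological replicates.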

C[C@]1(c2nc3c(C(N)=O)cccc3[nH]2)CCCN1 [Veliparib]
Conditions | relative cell number
sgRNA knockout: sgATF3, 10 nM | 113
sgRNA knockout: sgATF3, 100 nM | 117
sgRNA knockout: sgATF3, 1000 nM | 115
sgRNA knockout: sgATF3, 10000 nM | 85.9
sgRNA knockout: sgATF4, 10 nM | 108
sgRNA knockout: sgATF4, 100 nM | 113
sgRNA knockout: sgATF4, 1000 nM | 105
sgRNA knockout: sgATF4, 10000 nM | 91.5
sgRNA knockout: sgATF6, 10 nM | 118
sgRNA knockout: sgATF6, 100 nM | 126
sgRNA knockout: sgATF6, 1000 nM | 122
sgRNA knockout: sgATF6, 10000 nM | 88.8
sgRNA knockout: sgATG7, 10 nM | 103
sgRNA knockout: sgATG7, 100 nM | 109
sgRNA knockout: sgATG7, 1000 nM | 101
sgRNA knockout: sgATG7, 10000 nM | 91.7
sgRNA knockout: sgERN1, 10 nM | 104
sgRNA knockout: sgERN1, 100 nM | 113
sgRNA knockout: sgERN1, 1000 nM | 102
sgRNA knockout: sgERN1, 10000 nM | 93.53
sgRNA knockout: sgHSF1, 10 nM | 122
sgRNA knockout: sgHSF1, 100 nM | 140
sgRNA knockout: sgHSF1, 1000 nM | 135
sgRNA knockout: sgHSF1, 10000 nM | 98.3
sgRNA knockout: sgHSF2, 10 nM | 125
sgRNA knockout: sgHSF2, 100 nM | 128
sgRNA knockout: sgHSF2, 1000 nM | 111
sgRNA knockout: sgHSF2, 10000 nM | 88.4
sgRNA knockout: sgKEAP1, 10 nM | 125
sgRNA knockout: sgKEAP1, 100 nM | 153
sgRNA knockout: sgKEAP1, 1000 nM | 126
sgRNA knockout: sgKEAP1, 10000 nM | 82.7
sgRNA knockout: sgNFE2L2, 10 nM | 99.89
sgRNA knockout: sgNFE2L2, 100 nM | 103
sgRNA knockout: sgNFE2L2, 1000 nM | 98.8
sgRNA knockout: sgNFE2L2, 10000 nM | 89.8
sgRNA knockout: sgSLC35F2, 10 nM | 107
sgRNA knockout: sgSLC35F2, 100 nM | 118
sgRNA knockout: sgSLC35F2, 1000 nM | 102
sgRNA knockout: sgSLC35F2, 10000 nM | 88
sgRNA knockout: sgXBP1, 10 nM | 110
sgRNA knockout: sgXBP1, 100 nM | 114
sgRNA knockout: sgXBP1, 1000 nM | 107
sgRNA knockout: sgXBP1, 10000 nM | 93.6

C[C@@H](Oc1cc(-n2cnc3ccc(CN4CCN(C)CC4)cc32)sc1C(N)=O)c1ccccc1C(F)(F)F
Conditions | relative cell number
sgRNA knockout: sgATF3, 10 nM | 23.4
sgRNA knockout: sgATF3, 100 nM | 16.1
sgRNA knockout: sgATF3, 1000 nM | 21.5
sgRNA knockout: sgATF3, 10000 nM | 15.1
sgRNA knockout: sgATF4, 10 nM | 19.1
sgRNA knockout: sgATF4, 100 nM | 12.5
sgRNA knockout: sgATF4, 1000 nM | 18
sgRNA knockout: sgATF4, 10000 nM | 14.3
sgRNA knockout: sgATF6, 10 nM | 26.7
sgRNA knockout: sgATF6, 100 nM | 14.8
sgRNA knockout: sgATF6, 1000 nM | 21
sgRNA knockout: sgATF6, 10000 nM | 17
sgRNA knockout: sgATG7, 10 nM | 23.7
sgRNA knockout: sgATG7, 100 nM | 14.7
sgRNA knockout: sgATG7, 1000 nM | 20.7
sgRNA knockout: sgATG7, 10000 nM | 18.1
sgRNA knockout: sgERN1, 10 nM | 23.5
sgRNA knockout: sgERN1, 100 nM | 20.7
sgRNA knockout: sgERN1, 1000 nM | 18.6
sgRNA knockout: sgERN1, 10000 nM | 18.7
sgRNA knockout: sgHSF1, 10 nM | 22.4
sgRNA knockout: sgHSF1, 100 nM | 18
sgRNA knockout: sgHSF1, 1000 nM | 21.9
sgRNA knockout: sgHSF1, 10000 nM | 23.4
sgRNA knockout: sgHSF2, 10 nM | 29.1
sgRNA knockout: sgHSF2, 100 nM | 16.1
sgRNA knockout: sgHSF2, 1000 nM | 18.6
sgRNA knockout: sgHSF2, 10000 nM | 18.8
sgRNA knockout: sgKEAP1, 10 nM | 22.4
sgRNA knockout: sgKEAP1, 100 nM | 23.5
sgRNA knockout: sgKEAP1, 1000 nM | 23
sgRNA knockout: sgKEAP1, 10000 nM | 27.7
sgRNA knockout: sgNFE2L2, 10 nM | 19.9
sgRNA knockout: sgNFE2L2, 100 nM | 11.7
sgRNA knockout: sgNFE2L2, 1000 nM | 17.5
sgRNA knockout: sgNFE2L2, 10000 nM | 13.8
sgRNA knockout: sgSLC35F2, 10 nM | 23.2
sgRNA knockout: sgSLC35F2, 100 nM | 17.5
sgRNA knockout: sgSLC35F2, 1000 nM | 21.9
sgRNA knockout: sgSLC35F2, 10000 nM | 16.5
sgRNA knockout: sgXBP1, 10 nM | 24
sgRNA knockout: sgXBP1, 100 nM | 18.1
sgRNA knockout: sgXBP1, 1000 nM | 21.5
sgRNA knockout: sgXBP1, 10000 nM | 17.2

CNC(=O)c1cc(Oc2ccc(NC(=O)Nc3ccc(Cl)c(C(F)(F)F)c3)c(F)c2)ccn1 [Regorafenib]
Conditions | relative cell number
sgRNA knockout: sgATF3, 10 nM | 112
sgRNA knockout: sgATF3, 100 nM | 127
sgRNA knockout: sgATF3, 1000 nM | 103
sgRNA knockout: sgATF3, 10000 nM | 61.9
sgRNA knockout: sgATF4, 10 nM | 119
sgRNA knockout: sgATF4, 100 nM | 117
sgRNA knockout: sgATF4, 1000 nM | 95
sgRNA knockout: sgATF4, 10000 nM | 64.3
sgRNA knockout: sgATF6, 10 nM | 124
sgRNA knockout: sgATF6, 100 nM | 117
sgRNA knockout: sgATF6, 1000 nM | 115
sgRNA knockout: sgATF6, 10000 nM | 63
sgRNA knockout: sgATG7, 10 nM | 117
sgRNA knockout: sgATG7, 100 nM | 110
sgRNA knockout: sgATG7, 1000 nM | 98.9
sgRNA knockout: sgATG7, 10000 nM | 64.4
sgRNA knockout: sgERN1, 10 nM | 118
sgRNA knockout: sgERN1, 100 nM | 110
sgRNA knockout: sgERN1, 1000 nM | 105
sgRNA knockout: sgERN1, 10000 nM | 54.96
sgRNA knockout: sgHSF1, 10 nM | 128
sgRNA knockout: sgHSF1, 100 nM | 115
sgRNA knockout: sgHSF1, 1000 nM | 114
sgRNA knockout: sgHSF1, 10000 nM | 62.98
sgRNA knockout: sgHSF2, 10 nM | 119
sgRNA knockout: sgHSF2, 100 nM | 113
sgRNA knockout: sgHSF2, 1000 nM | 115
sgRNA knockout: sgHSF2, 10000 nM | 65.1
sgRNA knockout: sgKEAP1, 10 nM | 125
sgRNA knockout: sgKEAP1, 100 nM | 116
sgRNA knockout: sgKEAP1, 1000 nM | 120
sgRNA knockout: sgKEAP1, 10000 nM | 50.1
sgRNA knockout: sgNFE2L2, 10 nM | 112.6
sgRNA knockout: sgNFE2L2, 100 nM | 123
sgRNA knockout: sgNFE2L2, 1000 nM | 98
sgRNA knockout: sgNFE2L2, 10000 nM | 61.4
sgRNA knockout: sgSLC35F2, 10 nM | 116
sgRNA knockout: sgSLC35F2, 100 nM | 112
sgRNA knockout: sgSLC35F2, 1000 nM | 93.8
sgRNA knockout: sgSLC35F2, 10000 nM | 64.3
sgRNA knockout: sgXBP1, 10 nM | 121
sgRNA knockout: sgXBP1, 100 nM | 116
sgRNA knockout: sgXBP1, 1000 nM | 100
sgRNA knockout: sgXBP1, 10000 nM | 65.2
